Some of these results come from one statement about several compounds together.
How the values were obtained:
[1] = test system: PIK4CA transcript; test: siRNA transfection of MP1 cells, real-time RT-PCR of PIK4CA transcript levels; format: cell-based, human; conditions: 10 nM siRNA, relative to DharmaFECT only
Excerpt: In order to confirm that knockdown of PI4K inhibits HCV RNA replication, an independent method of suppressing the host gene using siRNA synthetic oligonucleotides, is implemented. […] The effect is specific in that transfection of non-specific oligonucleotides elicits no effect on HCV RNA replication. For the siRNA oligo transfection experiments, the MP1 cells (human hepatoma Huh-7 cell line harboring HCV RNA replicon with a luciferase reporter gene, as described above) are also used. Cells are maintained in DMEM High glucose (Wisent Inc.) supplemented with 10% fetal bovine serum (FBS; HyClone) containing neomycin (250 μg/ml) (Geneticin; Invitrogen). The assay medium lacks the neomycin. The siRNA are from Dharmacon RNA technologies and the siRNA to knock-down host cell transcript are either SMARTpool® reagents (Dharmacon), which are a pool of distinct siRNAs that all target multiple regions of the same target transcript. […]
The negative control corresponds to a no match NS5B sequence (AAGAGAGUCAGUCAGCUAAUCAC) [SEQ ID NO. […] Moreover, RNA is also isolated (using the 96-well Qiagen extraction method as described in example 1) from a replicate plate of transfected cells such that real-time RT-PCR quantifying HCV replicon copy number (as described in example 1) and cellular transcript RNA levels are performed. The method of quantifying host transcript RNA levels is similar to HCV RNA quantification except that the primers and the TaqMan probe are specific for the PIK4CA gene. “TaqMan® Gene Expression Assays” [from Applied Biosystems (ABI)] has a PIK4CA gene-specific probe and primer set for performing quantitative gene expression studies. […]
The real-time RT-PCR reactions to quantify PIK4CA mRNA transcript levels are set-up with the 20× “TaqMan® Gene Expression Assays” (ABI) that contains the TaqMan® MGB probe with a FAM™ reporter dye at the 5′-end and a nonfluorescent quencher at the 3′-end of the probe at a concentration of 5 μM. […]
A standard curve for a relative quantification of PIK4CA transcript expression per μg total RNA is established for each transcript. […]

[2] = test system: HCV RNA replicon; test: siRNA transfection of MP1 cells, HCV replicon luciferase assay; format: cell-based, hepatitis C virus; conditions: 10 nM siRNA, 100 hours post transfection
Procedure: The “Luciferase assay system” from Promega is used to measure firefly luciferase (reporter) expression in the MP1 cell line in a 96-well format with the following protocol: • Prepare the Luciferase assay reagent by adding Luciferase assay buffer to the vial containing the lyophilized Luciferase assay substrate • Prepare 1× Luciferase cell culture lysis reagent by adding 4 volumes of water to 1 volume of 5× lysis buffer • Carefully remove the assay medium from cells • Rinse cells with 100 μl PBS buffer being careful to not dislodge attached cells • A black backing tape (Packard) is applied on bottom side of the 96-well black clear bottom plate. • Aliquot 30 μl/well of 1× Luciferase cell culture lysis reagent • Incubate at room temperature 10 minutes minimum • Aliquot 150 μl/well of Luciferase assay reagent and immediately measure the light produced on a TopCount NXT Instrument (Packard) (count time=2 s/well)
In order to confirm that knockdown of PI4K inhibits HCV RNA replication, an independent method of suppressing the host gene using siRNA synthetic oligonucleotides, is implemented. […] The effect is specific in that transfection of non-specific oligonucleotides elicits no effect on HCV RNA replication. For the siRNA oligo transfection experiments, the MP1 cells (human hepatoma Huh-7 cell line harboring HCV RNA replicon with a luciferase reporter gene, as described above) are also used. […]
The negative control corresponds to a no match NS5B sequence (AAGAGAGUCAGUCAGCUAAUCAC) [SEQ ID NO. […] Moreover, RNA is also isolated (using the 96-well Qiagen extraction method as described in example 1) from a replicate plate of transfected cells such that real-time RT-PCR quantifying HCV replicon copy number (as described in example 1) and cellular transcript RNA levels are performed. The method of quantifying host transcript RNA levels is similar to HCV RNA quantification except that the primers and the TaqMan probe are specific for the PIK4CA gene. […]

[3] = test system: HCV RNA replicon; test: siRNA transfection of MP1 cells, real-time RT-PCR of HCV replicon copy number; format: cell-based, hepatitis C virus; conditions: 10 nM siRNA, replicate plate

Substance	reduction of PIK4CA transcript levels [1]	inhibition of HCV RNA levels as measured through the luciferase reporter [2]	inhibition of HCV RNA levels (RT-PCR) [3]
PIK4CAsiRNA#1: siRNA (si Genome duplex, Dharmacon) with defined sequence # 1 targeting a segment on the host transcript (GAGCATCTCTCCCTACCTA; listed as DNA, further chemistry not given here)	at least 75%	at least 90%	at least 90%
PIK4CAsiRNA#2: siRNA (si Genome duplex, Dharmacon) with defined sequence # 2 targeting a segment on the host transcript (GTGAAGCGATGTGGAGTTA; listed as DNA, further chemistry not given here)	at least 75%	at least 90%	at least 90%
PIK4CAsiRNA#3: siRNA (si Genome duplex, Dharmacon) with defined sequence # 3 targeting a segment on the host transcript (CCACAGGCCTCTCCTACTT; listed as DNA, further chemistry not given here)	at least 75%	at least 90%	at least 90%

— patent publication US20070212717A1, “Method for Inhibiting Hepatitis C Virus Replication” (priority 2006, published 2007)
